Reference: the supplement of paper PMC8612539
In brackets after ≈: the same amount, converted by molar mass. Further values from the same series stand in other lists.

Test system: Mannheimia haemolytica
Experiment: minimum inhibitory concentration (MIC)
Description: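 Broth microdilution MIC (Sensititre BOPO7F bovine plate, CLSI methods) of 19 antimicrobials against field isolates of P. multocida, M. haemolytica, H. somni (deep nasopharyngeal swabs) and E. coli, Enterococcus spp. (rectal swabs) from weaned dairy heifers. Incubation 16-24 h at 35 C. MIC is the lowest concentration preventing visible growth. Values with <= or > lie at the tested range limits. Trimethoprim-sulfamethoxazole is given as the trimethoprim component of a 1:19 mixture.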

Compound | minimum inhibitory concentration (isolate (source animal id): 3) [µg/mL] | minimum inhibitory concentration (isolate (source animal id): 60) [µg/mL] | minimum inhibitory concentration (isolate (source animal id): 61) [µg/mL] | minimum inhibitory concentration (isolate (source animal id): 64) [µg/mL] | minimum inhibitory concentration (isolate (source animal id): 65) [µg/mL] | minimum inhibitory concentration (isolate (source animal id): 66) [µg/mL] | minimum inhibitory concentration (isolate (source animal id): 67) [µg/mL] | minimum inhibitory concentration (isolate (source animal id): 68) [µg/mL] | minimum inhibitory concentration (isolate (source animal id): 70) [µg/mL] | minimum inhibitory concentration (isolate (source animal id): 72) [µg/mL] | minimum inhibitory concentration (isolate (source animal id): 74) [µg/mL] | minimum inhibitory concentration (isolate (source animal id): 76) [µg/mL] | minimum inhibitory concentration (isolate (source animal id): 80) [µg/mL] | minimum inhibitory concentration (isolate (source animal id): 82) [µg/mL] | minimum inhibitory concentration (isolate (source animal id): 83) [µg/mL] | minimum inhibitory concentration (isolate (source animal id): 84) [µg/mL] | minimum inhibitory concentration (isolate (source animal id): 85) [µg/mL] | minimum inhibitory concentration (isolate (source animal id): 86) [µg/mL] | minimum inhibitory concentration (isolate (source animal id): 87) [µg/mL]
CCN1CCN(c2cc3c(cc2F)c(=O)c(C(=O)O)cn3C2CC2)CC1 [Enrofloxacin] | 0.5 (≈ 1.39 µM) | 1 (≈ 2.78 µM) | > 2 | 0.25 (≈ 0.696 µM) | > 2 | 0.5 (≈ 1.39 µM) | > 2 | 0.5 (≈ 1.39 µM) | > 2 | 0.5 (≈ 1.39 µM) | > 2 | 0.5 (≈ 1.39 µM) | 0.5 (≈ 1.39 µM) | > 2 | ≤ 0.12 | 0.5 (≈ 1.39 µM) | 2 (≈ 5.56 µM) | 2 (≈ 5.56 µM) | 2 (≈ 5.56 µM)
CS(=O)(=O)c1ccc([C@@H](O)[C@@H](CF)NC(=O)C(Cl)Cl)cc1 [Florfenicol] | 1 (≈ 2.79 µM) | 2 (≈ 5.58 µM) | > 8 | 2 (≈ 5.58 µM) | > 8 | 2 (≈ 5.58 µM) | > 8 | 2 (≈ 5.58 µM) | > 8 | 2 (≈ 5.58 µM) | > 8 | 1 (≈ 2.79 µM) | 2 (≈ 5.58 µM) | > 8 | 0.5 (≈ 1.4 µM) | > 8 | 2 (≈ 5.58 µM) | 2 (≈ 5.58 µM) | 2 (≈ 5.58 µM)
CCCN1C[C@H](C)[C@@H](O)[C@](C)(O)[C@@H](CC)OC(=O)[C@H](C)[C@@H](O[C@H]2C[C@@](C)(OC)[C@@H](O)[C@H](C)O2)[C@H](C)[C@@H](O[C@@H]2O[C@H](C)C[C@H](N(C)C)[C@H]2O)[C@](C)(O)C[C@H]1C [Gamithromycin] | ≤ 1 | > 8 | 8 (≈ 10.3 µM) | ≤ 1 | 8 (≈ 10.3 µM) | > 8 | 8 (≈ 10.3 µM) | ≤ 1 | > 8 | ≤ 1 | 8 (≈ 10.3 µM) | ≤ 1 | 2 (≈ 2.57 µM) | > 8 | ≤ 1 | > 8 | 4 (≈ 5.15 µM) | 2 (≈ 2.57 µM) | 2 (≈ 2.57 µM)
CNC(C)C1CCC(N)C(OC2C(N)CC(N)C(OC3OCC(C)(O)C(NC)C3O)C2O)O1 (stereo not given) [Gentamicin] | 4 (≈ 8.38 µM) | 4 (≈ 8.38 µM) | 2 (≈ 4.19 µM) | 2 (≈ 4.19 µM) | 2 (≈ 4.19 µM) | 4 (≈ 8.38 µM) | 2 (≈ 4.19 µM) | 2 (≈ 4.19 µM) | 16 (≈ 33.5 µM) | 2 (≈ 4.19 µM) | 2 (≈ 4.19 µM) | 2 (≈ 4.19 µM) | 4 (≈ 8.38 µM) | 16 (≈ 33.5 µM) | 2 (≈ 4.19 µM) | 2 (≈ 4.19 µM) | 4 (≈ 8.38 µM) | 4 (≈ 8.38 µM) | 4 (≈ 8.38 µM)
NC[C@@H]1O[C@H](O[C@H]2[C@@H](O)[C@H](O[C@@H]3[C@@H](O)[C@H](N)C[C@H](N)[C@H]3O[C@H]3O[C@H](CN)[C@@H](O)[C@H](O)[C@H]3N)O[C@@H]2CO)[C@H](N)[C@@H](O)[C@@H]1O [Neomycin] | > 32 | > 32 | > 32 | 32 (≈ 52.1 µM) | > 32 | > 32 | > 32 | 32 (≈ 52.1 µM) | > 32 | > 32 | > 32 | 32 (≈ 52.1 µM) | > 32 | > 32 | 8 (≈ 13 µM) | > 32 | > 32 | > 32 | > 32
